Test results reported in PubChem BioAssay AID504444 (National Center for Advancing Translational Sciences (NCATS), 2011).
Out of some 360,000 compounds screened, about 7,500 (2.1%) were called active. This list was built around the results that the source calls inconclusive (neither active nor inactive); the mix of calls is not that of the screen. Calls follow the shape of the dose curve; as a rule, active = well fitted inhibition curve with a large enough effect; inconclusive = small, poorly fitted or top-dose-only effect, or effect the other way; inactive = flat fitted curve, though single readings scatter. A potency beside an inconclusive call is a rough fit, not a confirmed value.

assay: Nrf2 qHTS screen for inhibitors; details: A549 ARE-Fluc reporter, luciferase luminescence, 18-24 h; activity change, negative = inhibition: at 46 µM (top of the series); also: nearly all actives have a fitted effect of over 60% in size
How it was run: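 Concentration-response testing used A549 ARE_Fluc cells at 5000 cells/well. Following an 18-24 h compound incubation, viability was read by fluorescence (Ex 405/Em 525) and luciferase output by luminescence.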
% is scaled to controls: 0 for no effect and ±100 for the full control effect; potency is read from the fitted curve at half-maximal effect.

Structure (SMILES)	Potency	activity change, negative = inhibition
O=C(Oc1ccc(-c2cnc3ccccc3n2)cc1)c1ccc(Br)o1	inconclusive: 5.8 µM [activator, full curve]	–
COC(=O)c1c(C)sc(-c2c(-c3ccc(F)cc3)[nH]c3[nH]c(=O)[nH]c(=O)c23)c1O	–	inactive: 7.84%
COc1ccc(CN=C2NN=C(c3ccc(Cl)cc3)CS2)cc1	–	inactive: 4.73%
CCN(CC(=O)Nc1ccc(NC(C)=O)cc1)C(=O)/C=C/c1cn(-c2ccccc2)nc1-c1ccc(C)cc1	inconclusive: 29.1 µM [falling, single point]	–
O=C(CSc1cccc[n+]1[O-])Nc1c(Br)cc([N+](=O)[O-])cc1Br	–	inactive: -21.5%
COc1ccc(/C=C/C(=O)NC(=S)NCCc2ccc(OC)c(OC)c2)cc1	active: 7.31 µM	–
CCOc1ccc(NC(=O)CN(C)C(=O)C2CCN(C(=O)c3ccc(Cl)cc3)CC2)cc1OCC	inconclusive: 32.6 µM [falling, single point]	–
CCOc1ccc2cc(C#N)c(SCC(=O)OCc3ccccc3)nc2c1	inconclusive: 18.4 µM [activator, partial curve, poor fit]	–
COc1ccc(C(=O)Nc2ccccc2[N+](=O)[O-])cc1S(=O)(=O)N1CCOCC1	–	inactive: 2.55%
O=C(CCC(=O)N1CCN(S(=O)(=O)c2ccc(Cl)cc2)CC1)NCc1cccc(C(F)(F)F)c1	active: 8.2 µM	–
COc1ccc(C(=O)/C=C2/C(=O)Nc3ccccc32)c(OC)c1	–	inactive: -24.2%
COc1cc2c(cc1OC)-c1cc(Nc3ccc(F)cc3)nc(=O)n1CC2	inconclusive: 1.3 µM [falling, full curve]	–
CC(NC(=O)c1ccc([N+](=O)[O-])cc1[N+](=O)[O-])c1ccc(-c2ccccc2)cc1 (configuration not stated)	inconclusive: 20.6 µM [falling, single point]	–
COCCNC(=O)c1cnn2c(C(F)F)cc(-c3ccc(C)cc3)nc12	–	inactive: 0%
COc1ccc(Cn2c(C(=O)O)c(CNCCc3cccs3)c3ccc(OC)cc32)cc1	inconclusive: 20.6 µM [activator, single point]	–
COc1ccc(/C=C2\SC(=S)N(CCC(=O)N3CCCCC3)C2=O)cc1	–	inactive: -11.5%
O=C(c1ccc2ccccc2n1)N1CCN(c2ccccc2Cl)CC1	inconclusive: 18.4 µM [activator, partial curve]	–
Cc1oc2ncn(C)c(=O)c2c1C(=O)N1CCN(c2ccc(Cl)cc2)CC1	–	inactive: 3.32%
O=C(Nc1nnc(SCC(=O)N2CCOCC2)s1)C1CC(=O)N(c2ccc(F)cc2)C1 (configuration not stated)	inconclusive: 16.4 µM [activator, partial curve, poor fit]	–
Cc1nn(CC(=O)Nc2ccc(N3CCOCC3)cc2)c(C)c1[N+](=O)[O-]	inconclusive: 6.51 µM [activator, single point]	–
COc1ccc(N=C2NC(=O)/C(=C\C=C\c3ccco3)S2)cc1	–	inactive: 3.82%

Structure (SMILES)	Potency	activity change, negative = inhibition
CCCC(C(=O)Nc1ccc(S(=O)(=O)N2CCOCC2)cc1)c1ccccc1 (configuration not stated)	inconclusive: 29.1 µM [falling, single point]	–
O=C(Nc1ccc(Br)cc1)c1ccc(F)c(S(=O)(=O)N2CCN(c3ccccn3)CC2)c1	active: 23.1 µM	–
CCN1c2ccccc2-c2nc3ccccc3n2C1c1ccco1 (configuration not stated)	inconclusive: 23.1 µM [falling, single point]	–
CC(Sc1nc(N)cc(=O)[nH]1)C(=O)N1CCOCC1 (configuration not stated)	inconclusive: 10.3 µM [activator, partial curve, poor fit]	–
Cc1cccc(OCC(=O)Nc2ccc(N3CCN(C(=O)c4ccco4)CC3)cc2)c1C	–	inactive: -1.08%
Cc1ccc(-n2c(SCc3nc(-c4ccc(Cl)cc4)no3)nnc2-c2ccncc2)cc1	active: 23.1 µM	–
Cc1ccc(C)c(NC(=S)NC(NC(=O)Cc2ccccc2)C(Cl)(Cl)Cl)c1 (configuration not stated)	inconclusive: 32.6 µM [falling, partial curve, poor fit]	–
COc1ccc(-c2nc(CSCC(=O)N3CCN(c4cccc(C)c4)C(C)C3)c(C)o2)cc1OC (configuration not stated)	inconclusive: 20.6 µM [falling, single point]	–
Cc1cccc(/C(N)=N/OC(=O)C23CC4CC(CC(C4)C2)C3)c1	inconclusive: 16.4 µM [activator, partial curve]	–
COc1ccccc1NC(=S)NNC(=O)c1ccccc1	inconclusive: 13 µM [activator, single point]	–
O=C(Nc1ccc(Cl)cc1)c1nc[nH]c1C(=O)NCCCCNC(=O)c1[nH]cnc1C(=O)Nc1ccc(Cl)cc1	inconclusive: 20.6 µM [falling, single point]	–
COc1ccc(CCN2C(=O)c3cccc4c(C(=O)N5CCCCC5)ccc(c34)C2=O)cc1OC	inconclusive: 23.1 µM [falling, single point]	–
CCN(c1ccccc1)S(=O)(=O)c1nnc(NC(=O)C(C)Oc2ccccc2)s1 (configuration not stated)	inconclusive: 29.1 µM [activator, single point]	–
O=C(COc1ccc(S(=O)(=O)N2CCCC2)cc1Cl)N1CCN(c2ccccc2)CC1	inconclusive: 10.3 µM [falling, single point]	–
CCn1c(=N)n(CC(=O)c2ccc(OC)cc2)c2ccccc21	inconclusive: 6.51 µM [activator, single point]	–
C=CCn1c(-c2cc(-c3ccccc3)sc2N)n[nH]c1=S	inconclusive: 16.4 µM [falling, partial curve]	–
NC(=O)c1c(NC(=O)c2ccccc2F)sc2c1CCCC2	inconclusive: 1.16 µM [activator, full curve]	–
COc1ccc(C2c3c(-c4cc(Cl)c(C)cc4O)n[nH]c3C(=O)N2Cc2cccnc2)cc1OC (configuration not stated)	–	inactive: 20.5%
COc1ccc(N(C(=O)c2ccc(C)cc2)S(=O)(=O)c2ccc(Cl)cc2)cc1	inconclusive: 20.6 µM [falling, single point]	–
COc1cc(/C=C(\C#N)C(=O)Nc2ccccc2)ccc1OCCN1CCOCC1	inconclusive: 25.9 µM [activator, single point]	–
Cc1cccc(/C=C2/SC(=O)N(Cc3ccccc3Cl)C2=O)n1	inconclusive: 32.6 µM [falling, single point]	–

Arranged by number of heavy atoms (low to high): 12 of the compounds above
Structure (SMILES)	Potency	activity change, negative = inhibition
CC(Sc1nc(N)cc(=O)[nH]1)C(=O)N1CCOCC1 (configuration not stated)	inconclusive: 10.3 µM [activator, partial curve, poor fit]	–
COc1ccccc1NC(=S)NNC(=O)c1ccccc1	inconclusive: 13 µM [activator, single point]	–
NC(=O)c1c(NC(=O)c2ccccc2F)sc2c1CCCC2	inconclusive: 1.16 µM [activator, full curve]	–
CCn1c(=N)n(CC(=O)c2ccc(OC)cc2)c2ccccc21	inconclusive: 6.51 µM [activator, single point]	–
Cc1ccc(C)c(NC(=S)NC(NC(=O)Cc2ccccc2)C(Cl)(Cl)Cl)c1 (configuration not stated)	inconclusive: 32.6 µM [falling, partial curve, poor fit]	–
CCCC(C(=O)Nc1ccc(S(=O)(=O)N2CCOCC2)cc1)c1ccccc1 (configuration not stated)	inconclusive: 29.1 µM [falling, single point]	–
CCN(c1ccccc1)S(=O)(=O)c1nnc(NC(=O)C(C)Oc2ccccc2)s1 (configuration not stated)	inconclusive: 29.1 µM [activator, single point]	–
COc1cc(/C=C(\C#N)C(=O)Nc2ccccc2)ccc1OCCN1CCOCC1	inconclusive: 25.9 µM [activator, single point]	–
O=C(COc1ccc(S(=O)(=O)N2CCCC2)cc1Cl)N1CCN(c2ccccc2)CC1	inconclusive: 10.3 µM [falling, single point]	–
Cc1cccc(OCC(=O)Nc2ccc(N3CCN(C(=O)c4ccco4)CC3)cc2)c1C	–	inactive: -1.08%
COc1ccc(CCN2C(=O)c3cccc4c(C(=O)N5CCCCC5)ccc(c34)C2=O)cc1OC	inconclusive: 23.1 µM [falling, single point]	–
O=C(Nc1ccc(Cl)cc1)c1nc[nH]c1C(=O)NCCCCNC(=O)c1[nH]cnc1C(=O)Nc1ccc(Cl)cc1	inconclusive: 20.6 µM [falling, single point]	–
